Assay results as given in article PMC5517495, “Candidate SNP Markers of Familial and Sporadic Alzheimer's Diseases Are Predicted by a Significant Change in the Affinity of TATA-Binding Protein for Human Gene Promoters”.

The chains behind the UniProt entries cited, without tags or fusion partners.
UniProt P20226, whole entry: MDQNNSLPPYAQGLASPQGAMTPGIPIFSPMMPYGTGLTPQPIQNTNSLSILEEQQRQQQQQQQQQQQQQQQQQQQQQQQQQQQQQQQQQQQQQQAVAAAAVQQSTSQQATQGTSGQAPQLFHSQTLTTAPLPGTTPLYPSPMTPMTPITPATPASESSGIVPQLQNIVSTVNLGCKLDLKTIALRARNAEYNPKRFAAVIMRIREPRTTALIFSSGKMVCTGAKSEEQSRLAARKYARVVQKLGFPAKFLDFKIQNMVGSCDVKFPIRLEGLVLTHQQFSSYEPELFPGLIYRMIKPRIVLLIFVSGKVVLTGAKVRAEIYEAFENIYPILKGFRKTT

Molecular target: TATA-binding protein (TBP) (human) (UniProt P20226)
Assay: EMSA
Conditions: 0.3 nM TBP titrated with ODN, value only in figure; EMSA: 20 mM HEPES-KOH pH 7.6, 5 mM MgCl2, 70 mM KCl, 1 mM EDTA, 100 ug/ml BSA, 0.01% NP-40 (printed 0.0.1%), 5% glycerol, 25 C; stopped-flow buffer not stated; recombinant protein; residues 1-339; label: 32P on both strands

Sequence: CGCGGCGCTCTATATAAGTGGGCAGT (double strand) [TPI1 promoter rs1800202 ancestral allele (EMSA)]
- binding result: binds

The exact form of at least one protein or probe is not confirmed. At least one verdict was read from the data and is not stated in words by the source.
